These are yes or no findings as the source states them, for the method shown. Binding seen in cells or lysates may run through a third protein. Some results given as binding are weak or reduced against the parent protein; the word gives no strength.
Columns and labels:
Importin 8 (IPO8) = Importin 8 (IPO8) (UniProt O15397); test: co-IP; HEK293T cells co-transfected with pcDNA3.1-IPO8 and pcDNA3.1-p65 for 24 h; lysate in immunoprecipitation buffer, protein A/G magnetic beads and antibodies, Western blotting
IPO8 22–102 domain = IPO8 22–102 domain (UniProt O15397); test: co-IP; HEK293T cells transfected with IPO8 22–102; lysate in immunoprecipitation buffer, protein A/G magnetic beads and antibodies, Western blotting

Protein sequences, listed by entry. Tags and fused reporters are not part of them. Lines headed by an entry give the natural chain unless they say otherwise; changes in a name come on top. Residues count along the entry.
UniProt O15397: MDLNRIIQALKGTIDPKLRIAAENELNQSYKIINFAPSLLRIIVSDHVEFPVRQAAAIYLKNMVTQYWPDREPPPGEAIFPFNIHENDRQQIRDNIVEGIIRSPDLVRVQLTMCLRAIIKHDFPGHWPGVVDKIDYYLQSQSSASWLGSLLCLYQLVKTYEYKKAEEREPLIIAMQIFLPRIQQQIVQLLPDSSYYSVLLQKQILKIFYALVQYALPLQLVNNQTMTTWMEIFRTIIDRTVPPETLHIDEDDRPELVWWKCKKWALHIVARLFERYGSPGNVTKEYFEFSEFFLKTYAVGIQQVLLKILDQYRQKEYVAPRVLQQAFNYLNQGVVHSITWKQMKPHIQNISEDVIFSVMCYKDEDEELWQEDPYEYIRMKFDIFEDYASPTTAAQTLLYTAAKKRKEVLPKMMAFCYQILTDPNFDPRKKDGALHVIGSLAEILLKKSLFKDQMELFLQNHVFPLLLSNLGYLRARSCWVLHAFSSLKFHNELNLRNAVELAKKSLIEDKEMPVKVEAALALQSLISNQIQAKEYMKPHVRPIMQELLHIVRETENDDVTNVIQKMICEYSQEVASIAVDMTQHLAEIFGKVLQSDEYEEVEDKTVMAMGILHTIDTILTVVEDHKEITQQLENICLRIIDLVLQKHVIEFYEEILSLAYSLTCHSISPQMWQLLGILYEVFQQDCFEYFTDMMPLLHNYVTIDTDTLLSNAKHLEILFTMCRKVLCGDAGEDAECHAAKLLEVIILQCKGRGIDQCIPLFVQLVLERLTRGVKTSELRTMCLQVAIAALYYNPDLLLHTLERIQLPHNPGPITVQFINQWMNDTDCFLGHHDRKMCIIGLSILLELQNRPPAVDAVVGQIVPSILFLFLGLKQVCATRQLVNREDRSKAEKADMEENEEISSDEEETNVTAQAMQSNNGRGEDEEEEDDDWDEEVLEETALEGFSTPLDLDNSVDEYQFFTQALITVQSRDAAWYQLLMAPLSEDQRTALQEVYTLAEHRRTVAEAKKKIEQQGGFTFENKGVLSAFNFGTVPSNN
IPO8 22–102 domain: residues 22-102 of O15397
UniProt Q04206: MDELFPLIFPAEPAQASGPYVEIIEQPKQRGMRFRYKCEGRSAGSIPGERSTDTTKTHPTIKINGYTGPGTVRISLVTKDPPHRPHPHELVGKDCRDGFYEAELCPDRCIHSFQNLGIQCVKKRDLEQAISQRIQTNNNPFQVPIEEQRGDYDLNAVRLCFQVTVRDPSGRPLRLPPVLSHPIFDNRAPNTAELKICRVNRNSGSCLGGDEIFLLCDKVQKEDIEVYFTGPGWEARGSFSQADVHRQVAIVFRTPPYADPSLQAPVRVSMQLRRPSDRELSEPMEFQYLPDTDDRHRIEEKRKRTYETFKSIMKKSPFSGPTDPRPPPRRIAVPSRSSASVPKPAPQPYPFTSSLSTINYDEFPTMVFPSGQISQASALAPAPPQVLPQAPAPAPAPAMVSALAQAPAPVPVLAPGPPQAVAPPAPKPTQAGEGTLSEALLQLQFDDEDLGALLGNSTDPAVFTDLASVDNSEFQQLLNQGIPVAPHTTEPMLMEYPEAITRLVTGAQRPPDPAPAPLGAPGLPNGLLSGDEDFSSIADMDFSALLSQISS

Row | binding (Importin 8 (IPO8)) | binding (IPO8 22–102 domain) | Substance
1 | binds |  | NF-κB subunit p65 (from UniProt Q04206 1-551)
2 |  | binds | NF-κB subunit p65 (in HEK293T cells transfected with IPO8 22–102) (from UniProt Q04206 1-551)

From publication PMC12566618
